Positions count from the first letter of the chain named. Construct, isoform or probe ends are uncertain for at least one entry. For some of these results: At least one verdict was read from the data and is not stated in words by the source. Tags and fusion partners may be left off the protein sequences shown.
Assays:
Assay in all cases: EMSA (fluorescence)
[1] = target: T1, CueR_C112S (Escherichia coli) (UniProt P0A9G4); conditions: 3 uM protein, 1.5 uM DNA, formaldehyde 0.74% after complex formation, similar to WT; 25 mM Tris-base pH 8, 250 mM NaCl, 5% v/v glycerol, 30 min at RT; then 0.74% formaldehyde 30 min on ice; 4.5% (37:1) native PAGE; recombinant protein; label: 5'-Cy5 on strand 1
T1 sequence (looked up, limits assumed): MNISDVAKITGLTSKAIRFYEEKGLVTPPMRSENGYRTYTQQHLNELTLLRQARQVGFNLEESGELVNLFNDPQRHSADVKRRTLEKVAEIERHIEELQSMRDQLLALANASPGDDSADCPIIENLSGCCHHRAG

[2] = target: T2, CueR_C120S (Escherichia coli) (UniProt P0A9G4); conditions: 3 uM protein, 1.5 uM DNA, formaldehyde 0.74% after complex formation, similar to WT; 25 mM Tris-base pH 8, 250 mM NaCl, 5% v/v glycerol, 30 min at RT; then 0.74% formaldehyde 30 min on ice; 4.5% (37:1) native PAGE; recombinant protein; label: 5'-Cy5 on strand 1
T2 sequence (looked up, limits assumed): T1 sequence (looked up, limits assumed) with S112C, C120S

[3] = target: T3, WT-CueR (Escherichia coli) (UniProt P0A9G4); conditions: 3 uM protein, 1.5 uM DNA, formaldehyde 0.74% after complex formation; 25 mM Tris-base pH 8, 250 mM NaCl, 5% v/v glycerol, 30 min at RT; then 0.74% formaldehyde 30 min on ice; 4.5% (37:1) native PAGE; recombinant protein; label: 5'-Cy5 on strand 1
T3 sequence (looked up, limits assumed): T1 sequence (looked up, limits assumed) with S112C

[4] = target: T4, CueR_C112S_C120S (Escherichia coli) (UniProt P0A9G4); conditions: 3 uM protein, 1.5 uM DNA, formaldehyde 0.74% after complex formation, similar to WT; 25 mM Tris-base pH 8, 250 mM NaCl, 5% v/v glycerol, 30 min at RT; then 0.74% formaldehyde 30 min on ice; 4.5% (37:1) native PAGE; recombinant protein; label: 5'-Cy5 on strand 1
T4 sequence (looked up, limits assumed): T1 sequence (looked up, limits assumed) with C120S

Measured: binding result

TTGACCTTCCCCTTGCTGGAAGGTTTA (double strand) [copA promoter DNA fragment]
binds: all assays above
